Measured values reported in patent US20100015058A1 (STANFORD UNIVERSITY, priority 2008, published 2010).

Assay: general procedure: Fmoc solid-phase peptide synthesis; Rink Amide MBHA resin; TSTU
Settings: for conjugation yield: conjugation step; for step yield: late stage modification step
[1] = head-to-tail ring, sequence written open

Substance: 3,3′-(2-aminoethylazanediyl)dipropanoic acid (AEADP)-RGD-BBN hetero dimmer (III)
- conjugation yield (overall, two steps, head-to-tail ring, sequence written open): 32%

Substance: FB-AEADP-RGD-BBN
- step yield [1]: 85%

Substance: FB-PEG3-Glu-RGD-BBN
- step yield [1]: 76%

Substance: NOTA-c(RGDyK)
- conjugation yield: 61%

Substance: PEG3-Glu-RGD-BBN
- conjugation yield [1]: 58%
